The list shows a part of the results. The main result of the screen is listed elsewhere. These columns were measured beside it and carry no call. Most of these compounds were active or inconclusive in the main read-out, so they are no random draw. Words in brackets tell the shape of the fitted curve; partial curves, single points and poor fits give uncertain potencies.
Assay: qHTS Assay for Modulators of Lamin A Splicing
Details: HeLa LMNA splicing GFP/RFP minigene ratio, 48 h
Procedure, shortened: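 S3 HeLa stable clones carrying a lamin A-EGFP splicing minigene plus DsRed2 were seeded at 600 cells/well in Opti-MEM with 2% FBS, pin-dosed and incubated 48 h at 37°C. Acumen cytometry (488 nm) gave the GFP/RFP total-intensity ratio.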

[1] = measured here: RFP viability control channel
[2] = measured here: GFP splicing reporter channel

SMILES	AC50 [1]	AC50 [2]
c1nc(NC2CCCCC2)c2[nH]cnc2n1	35.5 µM [rising, single point]	
Cc1ccc(NC(=O)C(=O)NNC(=O)c2ccccc2C)cc1Cl	12.6 µM [falling, single point]	
Cc1ccc(N(C)S(=O)(=O)c2cccc(C(=O)Nc3nc4ccccc4[nH]3)c2)cc1	35.5 µM [rising, partial curve, poor fit]	
Cc1cccc(NC(=O)c2sc(-n3nc(C)c(Cc4ccc5c(c4)OCO5)c3C)nc2C)c1C	5.62 µM [rising, single point]	5.62 µM [rising, single point]
O=C(/C=C\c1cn(-c2ccccc2)nc1-c1ccc2c(c1)OCCO2)N1CCOCC1		0.02 µM [falling, full curve, poor fit]
COCc1cc(C)n(CC(=O)N/N=C/c2ccc(-c3ccc(Cl)c(C(=O)O)c3)o2)c(=O)c1C#N		0.631 µM [rising, full curve, poor fit]
CCN(CC)CCNC(=S)Nc1ccc2nc3n(c(=O)c2c1)CCCCC3	0.00316 µM [falling, full curve, poor fit]	
C=CCn1nc([N+](=O)[O-])nc1Sc1cccc2cccnc12	11.2 µM [rising, partial curve]	5.01 µM [rising, partial curve]
COC(=O)c1c(NC(=O)C2C3CCC(O3)C2C(=O)O)sc2c1CCCCCC2 (stereo not drawn)	12.6 µM [rising, partial curve]	
COc1ccc2[nH]cc(CCNc3ncncc3-c3ccccc3Cl)c2c1	35.5 µM [falling, single point]	12.6 µM [falling, partial curve]
O=C(c1ccco1)N1CCN(C(=O)C2CC2)CC1	0.01 µM [falling, full curve, poor fit]	
Cn1c(COc2ccc3ccccc3c2)nnc1SCC(=O)O		0.2 µM [rising, single point]
CN(C)c1ccc(Nc2c3c4c(cccc4n(C)c2=O)C(=O)c2ccccc2-3)cc1	4.47 µM [rising, partial curve]	0.0316 µM [falling, full curve, poor fit]
Clc1ccc(CCNc2nc3ccccc3s2)cc1		12.6 µM [falling, partial curve]
CCOC(=O)NC(=O)CSc1nc2ccc(C)cc2[nH]1		35.5 µM [rising, single point]
O=C(NCc1ccco1)c1nc2c(nnn2Cc2ccccc2Cl)c(=O)[nH]1	2.82 µM [rising, partial curve]	
CCOC(=O)Nc1ccc2c(c1)N(C(=O)CCN(C)C)c1ccccc1S2	25.1 µM [falling, single point]	17.8 µM [falling, partial curve]
Cn1cc(-c2ccccc2)cc(C#N)c1=O		0.158 µM [rising, partial curve, poor fit]
CN1C(=O)C(Cl)(Cl)C(=O)c2ccccc21	35.5 µM [rising, single point]	35.5 µM [rising, single point]

Three entries out of the list, sorted by number of heavy atoms, ascending.
SMILES	AC50 [1]	AC50 [2]
Clc1ccc(CCNc2nc3ccccc3s2)cc1		12.6 µM [falling, partial curve]
C=CCn1nc([N+](=O)[O-])nc1Sc1cccc2cccnc12	11.2 µM [rising, partial curve]	5.01 µM [rising, partial curve]
O=C(/C=C\c1cn(-c2ccccc2)nc1-c1ccc2c(c1)OCCO2)N1CCOCC1		0.02 µM [falling, full curve, poor fit]

(cont.)

SMILES	AC50 [1]	AC50 [2]
O=C(COC(=O)c1ccc([N+](=O)[O-])o1)c1ccccc1	0.0398 µM [falling, full curve, poor fit]	0.00708 µM [falling, full curve, poor fit]
CCCc1cc(C(=O)NNC(=S)NCc2ccccc2)cs1	35.5 µM [rising, single point]	12.6 µM [rising, single point]
O=C(/C=C/c1ccccc1F)c1cccc([N+](=O)[O-])c1	11.2 µM [rising, partial curve]	3.98 µM [rising, full curve]
COc1cc(NC(=O)COc2ccc(Cl)cc2)ccc1-c1cc2ccccc2oc1=O	14.1 µM [rising, single point]	
Oc1ccc(N=Nc2c(O)ccc3ccccc23)cc1	0.891 µM [rising, single point]	
CCC(C)N(C)Cc1cccc(C2(O)CCN(S(=O)(=O)c3ccc(F)c(C)c3)CC2)c1 (stereo not drawn)	31.6 µM [rising, single point]	
CCOC(=O)C(C)(C)N(Cc1ccc(C)cc1)S(=O)(=O)c1ccc(Cl)c([N+](=O)[O-])c1	35.5 µM [rising, single point]	
CCOC(=O)c1c(NC(=O)Cn2nc(C(F)(F)F)cc2C)sc2c1CCC2	17.8 µM [rising, single point]	
COc1ccc(S(=O)(=O)NCCSC(C)(C)C)cc1Cl	15.8 µM [rising, single point]	
CC(C)C[C@H](N)CSSC[C@@H](N)CC(C)C	17.8 µM [falling, partial curve]	14.1 µM [falling, partial curve, poor fit]
O=c1cnnc(SCc2ccc([N+](=O)[O-])cc2)[nH]1		0.631 µM [rising, single point]
Oc1ccc(/C=N/N2CCN(C3c4ccccc4-c4ccccc43)CC2)c(O)c1	12.6 µM [falling, partial curve]	12.6 µM [falling, partial curve]
CCOC(=O)c1[nH]nc2c1C(=O)N(Cc1ccccc1)C2=O		12.6 µM [rising, single point]
CCOC(=O)c1sc(/N=C/c2c(O)ccc3ccccc23)cc1C	35.5 µM [rising, single point]	
O=S(=O)(NC1CC1)c1ccc(S(=O)(=O)N2CCCc3ccccc32)cc1	14.1 µM [rising, partial curve]	
C=Cn1ccnc1P(=S)(c1ccc2c(c1)c1ccccc1n2CC)c1nccn1C=C	10 µM [rising, partial curve]	
COc1ccc2[nH]cc(CCNc3ncncc3-c3ccccc3C(F)(F)F)c2c1		10 µM [falling, partial curve, poor fit]
Cc1ccc(/C=C/S(=O)(=O)NCC(=O)O)cc1	3.98 µM [rising, full curve, poor fit]	

Reference: PubChem BioAssay AID1487 (National Center for Advancing Translational Sciences (NCATS), 2009)
